Assay [1] deals with T1, Nogo-B receptor (NgBR), endogenous, on human umbilical vein endothelial cells (HUVEC) (human) (UniProt Q96E22).
T1 sequence: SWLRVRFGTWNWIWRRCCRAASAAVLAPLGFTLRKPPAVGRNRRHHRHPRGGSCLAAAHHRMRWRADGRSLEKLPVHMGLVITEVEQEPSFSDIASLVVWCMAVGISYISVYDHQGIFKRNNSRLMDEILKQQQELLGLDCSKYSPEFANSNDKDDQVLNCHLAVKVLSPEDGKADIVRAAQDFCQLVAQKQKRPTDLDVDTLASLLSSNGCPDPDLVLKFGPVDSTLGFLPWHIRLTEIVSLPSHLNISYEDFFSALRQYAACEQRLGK
The assay is described as follows: surface binding of AP proteins to HUVEC (FIG. 15).

The target in assay [2] is T2, human Nogo-B receptor (NgBR), expressed from the cloned cDNA on transfected COS-7 or CHO cells (human) (UniProt Q96E22).
T2 sequence: T1 sequence
The experiment in a line: surface binding of AP proteins to CHO cells expressing NgBR (FIG. 14).

Data on 1 substance can be found in patent US20090305971A1 (YALE UNIVERSITY, published 2009).

These are yes or no findings as the source states them, for the method shown.

In the case of AP-Nogo-A (544-725) (ligand), the binding result in assay [1] and in assay [2] was “no binding” each time.
